From patent publication US5468734A, “Prophylactic and remedial preparation for diseases attendant on hyperglycemia, and wholesome food” (Godo Shusei Co., Ltd., priority 1992, dated 1995)

Type: in vivo, ICR male mice
Description: (Action to depress increase in body weight of mice)
ICR male mice after the elapse of 5 weeks from their birth were used in proportions of 10 mice per group.
Mice of a control group were caused to freely ingest the same feed as those used in the run groups except that L-arabinose was not added.
The mice of each group were separately weighed after 10 days, 20 days, 30 days and 60 days from the beginning of the ingestion to determine their weight increases from the initial weights, thereby calculating an average value of the weights increased in each group. The amounts of the feeds and water ingested were also determined.

[1] = 0.5% in feed (Group 1 / A1), after 10 days
[2] = 0.5% in feed (Group 1 / A1), after 20 days
[3] = 0.5% in feed (Group 1 / A1), after 30 days
[4] = 0.5% in feed (Group 1 / A1), after 60 days
[5] = 1.0% in feed (Group 2 / A2), after 10 days
[6] = 1.0% in feed (Group 2 / A2), after 20 days
[7] = 1.0% in feed (Group 2 / A2), after 30 days
[8] = 1.0% in feed (Group 2 / A2), after 60 days
[9] = 2.0% in feed (Group 3 / A3), after 10 days
[10] = 2.0% in feed (Group 3 / A3), after 20 days
[11] = 2.0% in feed (Group 3 / A3), after 30 days
[12] = 2.0% in feed (Group 3 / A3), after 60 days

SMILES: O=C[C@H](O)[C@@H](O)[C@@H](O)CO [L-Arabinose, L-arabinose]
- Amount of feed ingested [1]: 2.9 g/day
- Amount of water ingested [1]: 2.1 g/day
- Amount of feed ingested [2]: 3.1 g/day
- Amount of water ingested [2]: 2.7 g/day
- Amount of feed ingested [3]: 3.4 g/day
- Amount of water ingested [3]: 2.8 g/day
- Amount of feed ingested [4]: 3.9 g/day
- Amount of water ingested [4]: 3.1 g/day
- Amount of feed ingested [5]: 2.8 g/day
- Amount of water ingested [5]: 2.3 g/day
- Amount of feed ingested [6]: 3.1 g/day
- Amount of water ingested [6]: 2.8 g/day
- Amount of feed ingested [7]: 3.4 g/day
- Amount of water ingested [7]: 3.0 g/day
- Amount of feed ingested [8]: 3.8 g/day
- Amount of water ingested [8]: 3.2 g/day
- Amount of feed ingested [9]: 2.7 g/day
- Amount of water ingested [9]: 2.3 g/day
- Amount of feed ingested [10]: 3.1 g/day
- Amount of water ingested [10]: 2.9 g/day
- Amount of feed ingested [11]: 3.3 g/day
- Amount of water ingested [11]: 3.1 g/day
- Amount of feed ingested [12]: 3.7 g/day
- Amount of water ingested [12]: 3.3 g/day

Where two headings read alike, the source gives them in different places.
